Results reported in PubChem BioAssay AID2662 (National Center for Advancing Translational Sciences (NCATS), 2010).
Screen size: about 290,000 compounds; about 110 (0.038%) were called active. The shares of active, inactive and inconclusive entries below differ from those in the screen. Calls follow the shape of the dose curve; as a rule, active = well fitted inhibition curve with a large enough effect in the polarisation, with a control signal flat (not every such curve was filed as active); inconclusive = small, poorly fitted or top-dose-only effect, or effect the other way, or a change in a side signal; inactive = no such curve, though single readings can be large or run the other way; the % refers to the polarisation. Where the call is inconclusive, the potency comes from a doubtful curve fit. “Side channel” marks fits to a control or component signal instead of the main read-out.

Amino acid sequences for entries named in this document (tags omitted).
UniProt Q03164, whole entry, looked up: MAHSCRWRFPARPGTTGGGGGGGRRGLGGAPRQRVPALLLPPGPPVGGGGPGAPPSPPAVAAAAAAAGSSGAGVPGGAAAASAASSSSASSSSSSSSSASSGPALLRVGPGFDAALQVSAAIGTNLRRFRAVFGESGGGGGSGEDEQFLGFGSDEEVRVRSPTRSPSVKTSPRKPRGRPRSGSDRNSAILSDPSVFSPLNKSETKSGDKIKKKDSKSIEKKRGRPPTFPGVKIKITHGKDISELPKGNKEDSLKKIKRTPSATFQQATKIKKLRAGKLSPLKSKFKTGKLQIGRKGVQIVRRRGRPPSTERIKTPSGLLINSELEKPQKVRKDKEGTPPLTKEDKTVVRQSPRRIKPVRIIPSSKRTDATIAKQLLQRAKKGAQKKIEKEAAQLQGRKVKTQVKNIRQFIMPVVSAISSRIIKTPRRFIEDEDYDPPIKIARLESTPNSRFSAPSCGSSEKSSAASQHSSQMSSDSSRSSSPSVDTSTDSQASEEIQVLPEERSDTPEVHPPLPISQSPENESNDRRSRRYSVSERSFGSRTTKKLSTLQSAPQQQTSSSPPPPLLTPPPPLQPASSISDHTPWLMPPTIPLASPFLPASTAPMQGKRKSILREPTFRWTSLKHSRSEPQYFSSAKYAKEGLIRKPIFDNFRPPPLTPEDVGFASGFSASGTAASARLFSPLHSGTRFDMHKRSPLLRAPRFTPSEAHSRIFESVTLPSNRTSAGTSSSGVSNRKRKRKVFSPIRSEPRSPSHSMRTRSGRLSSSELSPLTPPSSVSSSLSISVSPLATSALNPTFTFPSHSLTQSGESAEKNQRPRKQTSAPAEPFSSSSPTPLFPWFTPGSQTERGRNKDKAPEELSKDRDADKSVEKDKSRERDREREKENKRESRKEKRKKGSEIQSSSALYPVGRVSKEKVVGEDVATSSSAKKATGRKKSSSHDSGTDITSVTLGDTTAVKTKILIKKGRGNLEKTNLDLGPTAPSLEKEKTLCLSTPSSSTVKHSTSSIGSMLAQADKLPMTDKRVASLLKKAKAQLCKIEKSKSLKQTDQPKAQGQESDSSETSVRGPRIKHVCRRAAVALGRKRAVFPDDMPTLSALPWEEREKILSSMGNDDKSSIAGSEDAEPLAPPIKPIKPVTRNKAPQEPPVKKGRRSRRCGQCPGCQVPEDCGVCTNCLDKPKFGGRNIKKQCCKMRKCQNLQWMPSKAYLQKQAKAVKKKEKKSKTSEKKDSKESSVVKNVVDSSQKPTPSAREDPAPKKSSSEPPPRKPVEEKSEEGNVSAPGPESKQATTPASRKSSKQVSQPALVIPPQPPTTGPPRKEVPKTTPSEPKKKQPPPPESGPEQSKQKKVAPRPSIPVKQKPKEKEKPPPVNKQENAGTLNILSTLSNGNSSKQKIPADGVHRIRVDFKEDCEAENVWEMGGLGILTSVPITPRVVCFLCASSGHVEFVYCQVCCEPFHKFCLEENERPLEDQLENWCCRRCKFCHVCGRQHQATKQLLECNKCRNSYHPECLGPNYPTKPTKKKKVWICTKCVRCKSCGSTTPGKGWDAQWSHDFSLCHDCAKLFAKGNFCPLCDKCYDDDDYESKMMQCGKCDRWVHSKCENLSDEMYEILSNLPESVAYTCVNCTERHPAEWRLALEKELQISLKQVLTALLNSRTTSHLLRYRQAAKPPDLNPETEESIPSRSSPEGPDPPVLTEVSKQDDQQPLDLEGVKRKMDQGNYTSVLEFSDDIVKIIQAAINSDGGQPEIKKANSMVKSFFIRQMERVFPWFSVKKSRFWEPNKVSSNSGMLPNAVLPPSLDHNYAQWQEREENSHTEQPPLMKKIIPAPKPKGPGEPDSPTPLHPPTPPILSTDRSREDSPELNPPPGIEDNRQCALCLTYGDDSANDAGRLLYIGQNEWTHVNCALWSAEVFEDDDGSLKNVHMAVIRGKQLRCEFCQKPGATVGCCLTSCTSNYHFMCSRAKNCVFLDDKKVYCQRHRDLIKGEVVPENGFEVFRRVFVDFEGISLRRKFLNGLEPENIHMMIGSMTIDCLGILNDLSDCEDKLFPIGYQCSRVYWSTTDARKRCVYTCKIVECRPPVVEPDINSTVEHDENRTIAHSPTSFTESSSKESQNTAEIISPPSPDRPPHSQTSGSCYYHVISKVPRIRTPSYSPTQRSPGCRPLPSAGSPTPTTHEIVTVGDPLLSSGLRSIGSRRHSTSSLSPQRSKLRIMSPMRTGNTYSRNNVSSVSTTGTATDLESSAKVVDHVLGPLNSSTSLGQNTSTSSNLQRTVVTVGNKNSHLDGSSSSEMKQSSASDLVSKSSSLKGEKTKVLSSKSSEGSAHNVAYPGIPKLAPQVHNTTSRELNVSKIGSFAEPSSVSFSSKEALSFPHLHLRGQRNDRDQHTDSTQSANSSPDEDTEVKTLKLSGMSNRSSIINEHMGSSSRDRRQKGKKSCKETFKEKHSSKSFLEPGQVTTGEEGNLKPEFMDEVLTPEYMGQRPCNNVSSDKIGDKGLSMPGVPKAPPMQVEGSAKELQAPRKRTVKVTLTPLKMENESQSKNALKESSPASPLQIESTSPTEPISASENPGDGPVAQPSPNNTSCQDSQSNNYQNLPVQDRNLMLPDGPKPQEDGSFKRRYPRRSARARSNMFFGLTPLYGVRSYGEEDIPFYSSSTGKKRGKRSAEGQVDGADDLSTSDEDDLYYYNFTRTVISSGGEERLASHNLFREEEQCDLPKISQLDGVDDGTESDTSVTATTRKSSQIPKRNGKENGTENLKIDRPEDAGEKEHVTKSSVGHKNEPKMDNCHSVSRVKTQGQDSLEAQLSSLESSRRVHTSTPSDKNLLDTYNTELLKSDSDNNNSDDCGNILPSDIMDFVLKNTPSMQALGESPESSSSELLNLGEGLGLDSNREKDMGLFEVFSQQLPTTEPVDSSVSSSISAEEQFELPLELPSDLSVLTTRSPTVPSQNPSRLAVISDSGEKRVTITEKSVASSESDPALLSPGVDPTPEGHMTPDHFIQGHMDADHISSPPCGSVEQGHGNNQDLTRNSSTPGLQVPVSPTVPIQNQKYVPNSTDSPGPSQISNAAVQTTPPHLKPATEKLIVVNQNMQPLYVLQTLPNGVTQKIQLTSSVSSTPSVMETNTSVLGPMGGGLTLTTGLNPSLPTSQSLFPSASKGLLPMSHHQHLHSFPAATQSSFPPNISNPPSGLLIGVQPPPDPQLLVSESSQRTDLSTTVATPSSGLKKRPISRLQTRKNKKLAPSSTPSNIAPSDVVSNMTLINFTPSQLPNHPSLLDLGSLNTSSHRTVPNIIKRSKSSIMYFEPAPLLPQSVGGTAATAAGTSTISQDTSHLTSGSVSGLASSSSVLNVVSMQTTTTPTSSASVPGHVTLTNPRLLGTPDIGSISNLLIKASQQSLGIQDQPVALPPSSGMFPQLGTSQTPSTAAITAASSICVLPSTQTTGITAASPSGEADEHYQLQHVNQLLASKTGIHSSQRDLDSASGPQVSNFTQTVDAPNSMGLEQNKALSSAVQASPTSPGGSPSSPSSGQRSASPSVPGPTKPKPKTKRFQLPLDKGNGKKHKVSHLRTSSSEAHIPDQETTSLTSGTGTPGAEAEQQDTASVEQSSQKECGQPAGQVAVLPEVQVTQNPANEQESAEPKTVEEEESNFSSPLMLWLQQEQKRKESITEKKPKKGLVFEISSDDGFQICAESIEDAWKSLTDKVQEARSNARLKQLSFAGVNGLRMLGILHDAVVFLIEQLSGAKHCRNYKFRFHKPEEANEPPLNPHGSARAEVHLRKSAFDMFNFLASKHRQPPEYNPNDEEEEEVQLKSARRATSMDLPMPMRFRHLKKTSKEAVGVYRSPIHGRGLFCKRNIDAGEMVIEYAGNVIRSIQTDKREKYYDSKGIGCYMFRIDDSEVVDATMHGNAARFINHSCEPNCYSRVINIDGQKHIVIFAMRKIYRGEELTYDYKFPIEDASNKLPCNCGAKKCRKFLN

Target: Histone-lysine N-methyltransferase 2A (Homo sapiens) (UniProt Q03164)
Assay: qHTS Fluorescence Polarization Assay for Inhibitors of MLL CXXC domain - DNA interaction
Details: MLL-CXXC / FITC-HOXA9 DNA fluorescence polarization; activity change, negative = inhibition: at 115 µM (top of the series)
Outline: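 Purified MLL-CXXC (added from a 7 uM solution) was preincubated 5 min at ambient with pinned compounds in 50 mM Tris-HCl pH 7.5, 50 mM NaCl, 1 mM DTT, 0.05% BSA. Fluorescein-labeled HOX-A9 DNA (50 nM solution) followed, 30 min, then polarization read.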
Potency is read from the fitted curve at half-maximal effect.

Compound	Potency	activity change, negative = inhibition
COc1ccc(/C=C/C(O)=C(\C#N)c2nnc(N3CCOCC3)n2-c2ccccc2)cc1OC	inconclusive: 10 µM [inhibitor, single point]	–
Cc1ccc(NC(=S)NCCc2ccc(F)cc2)c(C)c1	inconclusive: 44.7 µM [inhibitor, single point]	–
CC(=O)c1cccc(NC(=O)CSc2nc(N3CCCCC3)nc(N3CCCCC3)n2)c1	inconclusive: 89.1 µM [inhibitor, single point]	–
CCn1c2ccc(OC)cc2c2nc3ccccc3nc21	–	inactive: 13.1%
O=C(CCSc1ccc(Cl)cc1)c1cccs1	–	inactive: 48.7%
COC(=O)Cc1cc(=O)[nH]c(/N=C(\N)Nc2ccc(C(C)C)cc2)n1	inconclusive: 15.8 µM [inhibitor, partial curve]	–
CCOC(=O)CC1(NC(=O)c2cc(COc3ccc(F)c(F)c3)on2)CCCCC1	inconclusive: 3.55 µM [quencher, side channel, full curve, poor fit]	–
CCOC(=O)c1c(/N=C/c2cccc(C)c2O)sc2c1CCN(C)C2	inconclusive: 35.5 µM [quencher, side channel, partial curve]	–
CCOC(=O)c1c(NC(=S)NC(=O)/C=C/c2cccs2)sc(C)c1C	inconclusive: 7.94 µM [fluorescent, side channel, full curve]	–
COC(=O)c1sc2cc(C(F)(F)F)cnc2c1-c1cccnc1	–	inactive: -1.85%
CCN(CC)c1ccc(C=Nc2cccnc2Cl)c(O)c1	inconclusive: 63.1 µM [fluorescent, side channel, single point]	–
COc1ccc(-c2cc(C(F)(F)F)nc(-n3cncn3)n2)cc1	–	inactive: 21.1%
CCOC(=O)CC/C(C)=N\N=C1\SC(CC(=O)O)C(=O)N1c1ccccc1 (stereo unspecified)	inconclusive: 89.1 µM [inhibitor, single point]	–
Cc1ccc(C(C(=O)NCC2CCCO2)N(C(=O)c2snc(C(N)=O)c2N)c2ccc(C(C)C)cc2)o1 (stereo unspecified)	–	inactive: 5.15%
CCc1ccc(Nc2n[n+](-c3ccccc3)c(-c3ccc(SC)cc3)s2)cc1	inconclusive: 35.5 µM [quencher, side channel, partial curve]	–
CCNC(=O)COc1ccc(/C=C2\COc3ccccc3C2=O)cc1OC	–	inactive: -21.6%
COC(=O)Cn1c(C)c(/C=C/c2cc[n+](C)cc2)c2ccccc21	inconclusive: 35.5 µM [fluorescent, partial curve]	–
Cc1ccc2c(Cl)c(C(=O)NCC(c3ccco3)N3CCCC3)sc2c1 (stereo unspecified)	inconclusive: 8.91 µM [quencher, side channel, single point]	–
COc1ccc(C(=O)O)cc1S(=O)(=O)N1CCCc2ccccc21	inconclusive: 31.6 µM [fluorescent, side channel, partial curve]	–
Cc1ccc(S(=O)(=O)Nc2ccncc2)c(C)c1	inconclusive: 1.58 µM [inhibitor, full curve, poor fit]	–
CCN(CC)CCN1C(=O)c2ccccc2NC1c1cc(OC)c(OC)c(OC)c1 (stereo unspecified)	–	inactive: 1.77%

Reprinted at random: 2 records from the list, in no set order.
Compound	Potency	activity change, negative = inhibition
COc1ccc(/C=C/C(O)=C(\C#N)c2nnc(N3CCOCC3)n2-c2ccccc2)cc1OC	inconclusive: 10 µM [inhibitor, single point]	–
CCOC(=O)CC/C(C)=N\N=C1\SC(CC(=O)O)C(=O)N1c1ccccc1 (stereo unspecified)	inconclusive: 89.1 µM [inhibitor, single point]	–

(further entries)

Compound	Potency	activity change, negative = inhibition
N#CCc1nn2c(-c3ccccc3)ccnc2c1C#N	inconclusive: 7.08 µM [fluorescent, side channel, full curve]	–
Cc1oc(-c2ccc(Cl)cc2)nc1CS(=O)CC(=O)NCCCN(C)C1CCCCC1 (stereo unspecified)	inconclusive: 10 µM [fluorescent, side channel, single point]	–
CCCCCCC(=O)Nc1ccc(C(=O)N/N=C/c2cccnc2)cc1	–	inactive: 6.35%
Cc1ccc(NC(=O)CNC(=O)c2ccc3c(c2)OCO3)nc1	inconclusive: 70.8 µM [quencher, side channel, single point]	–
Cc1ccc(NC(=O)CCn2nnc3ccccc32)cc1	inconclusive: 1.41 µM [fluorescent, side channel, partial curve, poor fit]	–
COc1ccc(OC)c(-c2c3cc(O)c(=O)cc-3oc3cc(O)c(O)cc23)c1	inconclusive: 11.2 µM [fluorescent, side channel, full curve]	–
COc1cc(Nc2nc3ccc(Cl)cc3n3cnnc23)cc(OC)c1OC	inconclusive: 44.7 µM [fluorescent, side channel, partial curve]	–
CN(Cc1nc2ccccc2[nH]1)C(=O)C1CCC(=O)N(C2CCCC2)C1 (stereo unspecified)	inconclusive: 10 µM [quencher, side channel, single point]	–
Cn1c(=O)c(NCCc2ccccc2)c2c3c(cccc31)C(=O)c1ccccc1-2	inconclusive: 2.51 µM [fluorescent, side channel, full curve]	–
O=C1/C(=N\S(=O)(=O)c2cccs2)C([n+]2cccc(Cc3ccccc3)c2)=C([O-])c2ccccc21	active: 25.1 µM	–
COc1cccc(C(=O)CC(=O)C(=O)Nc2cc(OC)ccc2OC)c1	inconclusive: 35.5 µM [fluorescent, side channel, single point]	–
CCOc1ccc(C(=O)OCC(=O)Nc2ccc(SC(F)F)cc2)cc1OCC	inconclusive: 44.7 µM [fluorescent, side channel, partial curve]	–
O=C(O)c1cc(-c2ccc(/C=N/NC(=S)Nc3ccccc3)o2)ccc1Cl	inconclusive: 35.5 µM [quencher, side channel, single point]	–
Cc1ccc(NC(=O)Nc2nnc(-c3ccncc3)s2)cc1C	–	inactive: -12.4%
Cc1cc(C)c(S(=O)(=O)N2CCOC2CNC(=O)C(=O)NCCN(C)C)c(C)c1 (stereo unspecified)	inconclusive: 35.5 µM [fluorescent, side channel, partial curve]	–
CC(C)(C)OC(=O)N1CCC[C@H]1c1nnc(SCC(=O)Nc2ccc(Br)cc2)o1	inconclusive: 1.26 µM [quencher, side channel, full curve, poor fit]	–
CN(C)/C=C1\SC(=S)N(c2ccc(Br)cc2)C1=O	inconclusive: 14.1 µM [fluorescent, side channel, full curve]	–
O=C(Nc1ccc(N2CCN(C(=O)c3ccco3)CC2)cc1)c1cccc(F)c1	inconclusive: 89.1 µM [inhibitor, single point]	–
Cc1ccc2nc(NC(=O)c3cccc(-c4cc5ccccc5oc4=O)c3)sc2c1	–	inactive: 13.1%
C#CCNC(=O)C1=C[C@H](c2cn(C(C)=O)c3ccccc23)[C@@H](CCCO)[C@H](OCC)O1	inconclusive: 39.8 µM [inhibitor, single point]	–
Cc1ccc2nc(N(CCCN(C)C)C(=O)c3ccc4c(c3)CCCC4)sc2c1	inconclusive: 63.1 µM [inhibitor, single point]	–

Compound	Potency	activity change, negative = inhibition
CCc1nn(CC(=O)Nc2ccc(Br)c(C)c2)c(=N)s1	inconclusive: 14.1 µM [inhibitor, single point]	–
Cc1ccc(Cl)c2c1NC(=O)C2(O)CC(=O)c1ccc(Br)cc1 (stereo unspecified)	inconclusive: 15.8 µM [quencher, side channel, single point]	–
Cc1ccc(C)c(NC(=O)c2ccc3ccccc3n2)c1	–	inactive: -6.91%
C(=N\Nc1ccccn1)/c1c[nH]c2ccccc12	–	inactive: 0.559%
C/C(=N\NC(=O)C1CCCC1)c1ccc(Cl)cc1	inconclusive: 39.8 µM [inhibitor, partial curve]	–
CCOc1ccc(CN2CCN(Cc3cc4ccccc4[nH]3)CC2CCO)cc1 (stereo unspecified)	inconclusive: 15.8 µM [inhibitor, single point]	–
COc1ccc(C(=O)CC(=O)C(=O)Nc2ccccc2OC)cc1	inconclusive: 50.1 µM [fluorescent, side channel, single point]	–
Oc1[nH]c2ccccc2c1N=Nc1ccc(F)cc1	inconclusive: 15.8 µM [fluorescent, side channel, partial curve]	–
CN(CC(CC(=O)Nc1nncs1)c1ccccc1)S(=O)(=O)c1ccccc1 (stereo unspecified)	–	inactive: -2.55%
C#CCOCCOCCOCCNc1nc(N2CCN(C(=O)[C@H]([C@@H](C)CC)n3cc([C@@H](N)Cc4ccc(O)cc4)nn3)CC2)nc(N2CCN(C(=O)[C@H](CCCCN)n3cc([C@@H](N)C(C)CC)nn3)CC2)n1 (stereo partly specified)	–	inactive: -2.45%
Clc1ccc(CSc2nnc3c(n2)[nH]c2ccccc23)cc1	inconclusive: 50.1 µM [fluorescent, side channel, single point]	–
O=C(CCCN1C(=O)c2ccccc2C1=O)Oc1ccc(F)cc1	inconclusive: 31.6 µM [quencher, side channel, single point]	–
CC(C)CC1=C/C(=C/c2ccc(-c3ccccc3)o2)C(=O)O1	–	inactive: -2.42%
Cc1ccc(C)c(-c2cc(C(=O)Nc3cccc(C(=O)O)c3)c3ccccc3n2)c1	inconclusive: 3.16 µM [fluorescent, side channel, full curve, poor fit]	–
O=[N+]([O-])c1cc2c(c(CSc3nnc4ccccn34)c1)OCOC2	inconclusive: 1.41 µM [fluorescent, side channel, full curve, poor fit]	–
CCc1noc(C)c1C(=O)N(CCOC)c1c(N)n(CC(C)C)c(=O)[nH]c1=O	inconclusive: 8.91 µM [fluorescent, side channel, partial curve]	–
COc1ccc(CCNC(=O)C2CCN(C(=O)c3ccc(F)cc3)CC2)cc1OC	inconclusive: 70.8 µM [inhibitor, single point]	–
CC1=NC(=O)C(N=Nc2cccc(C(=O)O)c2)N1c1ccccc1 (stereo unspecified)	inconclusive: 17.8 µM [inhibitor, partial curve]	–
COc1ccc(NC(=S)N2CCC(N(C)CC3CCCO3)CC2)cc1 (stereo unspecified)	inconclusive: 1.41 µM [fluorescent, side channel, partial curve, poor fit]	–
